Assay results as given in paper PMC3540084.
These are yes or no findings as the source states them, for the method shown. In cells and extracts the contact can be indirect. For part of these data: Binding calls can cover weak binding; strength is not graded here. For part of these data: Where a sequence is shown, tags or fusion partners need not be part of it. One block for each molecule: values may come before it.

Amino acid sequences for entries named in this document (tags omitted). A change or cut given only in a name is not applied to a line headed by its entry.
UniProt Q8C3Q9: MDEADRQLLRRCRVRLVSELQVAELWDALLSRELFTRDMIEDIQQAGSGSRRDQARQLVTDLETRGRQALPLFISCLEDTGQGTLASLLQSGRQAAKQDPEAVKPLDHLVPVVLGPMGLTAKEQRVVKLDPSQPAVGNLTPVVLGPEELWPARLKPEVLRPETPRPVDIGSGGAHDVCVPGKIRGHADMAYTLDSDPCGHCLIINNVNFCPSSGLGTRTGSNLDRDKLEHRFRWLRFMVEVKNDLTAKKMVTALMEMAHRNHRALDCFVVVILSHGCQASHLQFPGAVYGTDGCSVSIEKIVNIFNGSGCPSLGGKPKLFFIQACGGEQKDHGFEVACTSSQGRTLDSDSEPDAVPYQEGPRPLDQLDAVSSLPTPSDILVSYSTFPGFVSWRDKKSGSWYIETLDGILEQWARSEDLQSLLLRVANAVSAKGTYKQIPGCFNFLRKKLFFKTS
UniProt P10749: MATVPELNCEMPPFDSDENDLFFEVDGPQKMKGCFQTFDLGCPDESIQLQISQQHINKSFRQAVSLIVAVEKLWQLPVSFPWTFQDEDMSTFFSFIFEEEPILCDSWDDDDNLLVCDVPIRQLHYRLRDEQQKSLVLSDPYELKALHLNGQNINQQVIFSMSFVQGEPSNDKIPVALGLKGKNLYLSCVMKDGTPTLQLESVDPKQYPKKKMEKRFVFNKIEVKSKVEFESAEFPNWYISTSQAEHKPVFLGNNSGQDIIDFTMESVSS

Experiments:
Assay in all cases: co-IP; cytosols of cultured HL-1 cardiomyocytes after 6 hr hypoxia; polyclonal Abs to IL-1Ra, caspases or control IL-1beta coupled to Sepharose beads plus protein A/G; precipitates washed in PBS; Western blot with monoclonal Abs; IP compared to unbound (free) supernatant proteins
[1] = molecular target: T1, caspase-7 (mouse) (mouse (endogenous in HL-1)) (UniProt P97864)
T1 sequence: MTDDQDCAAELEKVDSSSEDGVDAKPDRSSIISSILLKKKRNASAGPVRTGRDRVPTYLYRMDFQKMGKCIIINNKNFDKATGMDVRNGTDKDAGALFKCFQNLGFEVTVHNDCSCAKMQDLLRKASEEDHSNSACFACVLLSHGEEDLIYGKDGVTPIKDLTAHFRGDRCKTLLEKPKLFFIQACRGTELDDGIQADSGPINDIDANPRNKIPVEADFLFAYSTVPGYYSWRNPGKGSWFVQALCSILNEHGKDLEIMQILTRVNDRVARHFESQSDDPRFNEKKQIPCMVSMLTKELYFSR

[2] = molecular target: caspase-9 (mouse) (mouse (endogenous in HL-1)) (UniProt Q8C3Q9)
[3] = molecular target: T2, caspase-3 (mouse) (mouse (endogenous in HL-1)) (UniProt P70677)
T2 sequence: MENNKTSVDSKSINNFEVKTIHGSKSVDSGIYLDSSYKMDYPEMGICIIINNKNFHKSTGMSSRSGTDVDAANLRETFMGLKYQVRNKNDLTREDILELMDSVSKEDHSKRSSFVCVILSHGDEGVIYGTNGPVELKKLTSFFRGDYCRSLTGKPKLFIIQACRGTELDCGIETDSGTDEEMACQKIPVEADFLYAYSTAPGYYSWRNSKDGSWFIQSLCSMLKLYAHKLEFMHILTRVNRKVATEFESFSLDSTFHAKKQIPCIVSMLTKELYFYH

[4] = molecular target: T3, caspase-6 (mouse) (mouse (endogenous in HL-1)) (UniProt O08738)
T3 sequence: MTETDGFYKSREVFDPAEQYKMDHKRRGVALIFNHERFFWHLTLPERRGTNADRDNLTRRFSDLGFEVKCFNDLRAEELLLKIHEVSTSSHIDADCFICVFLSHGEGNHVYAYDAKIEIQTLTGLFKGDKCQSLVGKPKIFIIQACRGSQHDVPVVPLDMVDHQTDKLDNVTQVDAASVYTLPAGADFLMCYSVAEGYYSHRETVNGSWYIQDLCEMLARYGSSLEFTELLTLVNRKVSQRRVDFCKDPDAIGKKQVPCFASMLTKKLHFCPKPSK

[5] = molecular target: intracellular IL-1Ra isoform (mouse interleukin-1 receptor antagonist) (mouse (endogenous in HL-1))

binding [1]: no binding
binding [2]: no binding
binding [3]: no binding
binding [4]: no binding
Molecule: IL-1beta (mouse) (from UniProt P10749)

binding [1]: binds weakly
binding [3]: binds
binding [4]: binds weakly
Molecule: intracellular IL-1Ra isoform (mouse interleukin-1 receptor antagonist)

binding [5]: no binding
B1: IL-1R1 ancillary protein (mouse) (receptor, UniProt Q61730 21-570)
chain: SERCDDWGLDTMRQIQVFEDEPARIKCPLFEHFLKYNYSTAHSSGLTLIWYWTRQDRDLEEPINFRLPENRISKEKDVLWFRPTLLNDTGNYTCMLRNTTYCSKVAFPLEVVQKDSCFNSAMRFPVHKMYIEHGIHKITCPNVDGYFPSSVKPSVTWYKGCTEIVDFHNVLPEGMNLSFFIPLVSNNGNYTCVVTYPENGRLFHLTRTVTVKVVGSPKDALPPQIYSPNDRVVYEKEPGEELVIPCKVYFSFIMDSHNEVWWTIDGKKPDDVTVDITINESVSYSSTEDETRTQILSIKKVTPEDLRRNYVCHARNTKGEAEQAAKVKQKVIPPRYTVELACGFGATVFLVVVLIVVYHVYWLEMVLFYRAHFGTDETILDGKEYDIYVSYARNVEEEEFVLLTLRGVLENEFGYKLCIFDRDSLPGGIVTDETLSFIQKSRRLLVVLSPNYVLQGTQALLELKAGLENMASRGNINVILVQYKAVKDMKVKELKRAKTVLTVIKWKGEKSKYPQGRFWKQLQVAMPVKKSPRWSSNDKQGLSYSSLKNV

binding [2]: binds
B2: secreted IL-1Ra isoform (mouse interleukin-1 receptor antagonist) (protein, UniProt P25085 27-178)
chain: RPSGKRPCKMQAFRIWDTNQKTFYLRNNQLIAGYLQGPNIKLEEKIDMVPIDLHSVFLGIHGGKLCLSCAKSGDDIKLQLEEVNITDLSKNKEEDKRFTFIRSEKGPTTSFESAACPGWFLCTTLEADRPVSLTNTPEEPLIVTKFYFQEDQ
